The supplement of paper PMC12823440, “Inhibitors supercharge kinase turnover through native proteolytic circuits” (Nature, 2025)
Some of the results follow. The calls rarely recur for the same compound in another form.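 Kinases were expressed as nanoluciferase fusions in K562 cells and luminescence was read every 4 h between 2 and 18 h as percent of control, DMSO set to 100% and a positive control to 0%. A time point counts as decreased when the signal drops significantly (2 sigma). The hit call is the authors' own, does not follow from the count of time points alone, and its rule is not shown.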

Sequences of proteins named here, by UniProt entry; tags and fusion partners are left off. A change or cut given only in a name is not applied to a line headed by its entry.
UniProt P50613: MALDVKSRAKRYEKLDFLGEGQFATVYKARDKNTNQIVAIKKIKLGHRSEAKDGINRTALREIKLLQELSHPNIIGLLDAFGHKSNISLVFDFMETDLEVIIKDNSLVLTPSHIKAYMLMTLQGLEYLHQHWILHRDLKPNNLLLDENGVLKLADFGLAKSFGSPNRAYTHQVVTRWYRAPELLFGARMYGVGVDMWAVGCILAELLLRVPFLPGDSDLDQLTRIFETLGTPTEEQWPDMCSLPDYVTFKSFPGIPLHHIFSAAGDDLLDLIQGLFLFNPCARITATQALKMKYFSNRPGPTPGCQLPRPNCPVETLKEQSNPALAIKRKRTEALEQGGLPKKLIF
UniProt P50750, whole entry: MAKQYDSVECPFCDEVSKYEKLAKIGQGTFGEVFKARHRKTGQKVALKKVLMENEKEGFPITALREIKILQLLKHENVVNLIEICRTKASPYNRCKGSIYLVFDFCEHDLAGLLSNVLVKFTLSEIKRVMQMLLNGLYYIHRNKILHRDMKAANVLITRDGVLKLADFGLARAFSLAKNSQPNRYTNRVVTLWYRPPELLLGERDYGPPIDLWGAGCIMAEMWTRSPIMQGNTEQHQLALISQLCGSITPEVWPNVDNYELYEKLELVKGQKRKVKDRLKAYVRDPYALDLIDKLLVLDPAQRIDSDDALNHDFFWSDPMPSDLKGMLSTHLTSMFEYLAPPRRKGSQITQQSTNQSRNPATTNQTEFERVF
UniProt O96017, whole entry: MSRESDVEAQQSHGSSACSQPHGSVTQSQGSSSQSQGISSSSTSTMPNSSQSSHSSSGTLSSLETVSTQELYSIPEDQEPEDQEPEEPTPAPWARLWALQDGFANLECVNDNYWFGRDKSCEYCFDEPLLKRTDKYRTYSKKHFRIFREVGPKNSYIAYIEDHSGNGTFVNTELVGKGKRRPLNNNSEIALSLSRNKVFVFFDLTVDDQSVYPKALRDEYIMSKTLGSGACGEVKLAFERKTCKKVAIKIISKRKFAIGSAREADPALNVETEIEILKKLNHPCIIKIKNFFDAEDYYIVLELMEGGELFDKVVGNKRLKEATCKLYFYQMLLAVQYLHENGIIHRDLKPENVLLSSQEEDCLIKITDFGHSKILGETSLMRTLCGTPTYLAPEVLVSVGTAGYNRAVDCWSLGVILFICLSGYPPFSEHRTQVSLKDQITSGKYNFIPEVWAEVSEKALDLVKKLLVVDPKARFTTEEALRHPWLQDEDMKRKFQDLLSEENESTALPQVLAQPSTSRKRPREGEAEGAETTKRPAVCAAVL
UniProt P07333, whole entry: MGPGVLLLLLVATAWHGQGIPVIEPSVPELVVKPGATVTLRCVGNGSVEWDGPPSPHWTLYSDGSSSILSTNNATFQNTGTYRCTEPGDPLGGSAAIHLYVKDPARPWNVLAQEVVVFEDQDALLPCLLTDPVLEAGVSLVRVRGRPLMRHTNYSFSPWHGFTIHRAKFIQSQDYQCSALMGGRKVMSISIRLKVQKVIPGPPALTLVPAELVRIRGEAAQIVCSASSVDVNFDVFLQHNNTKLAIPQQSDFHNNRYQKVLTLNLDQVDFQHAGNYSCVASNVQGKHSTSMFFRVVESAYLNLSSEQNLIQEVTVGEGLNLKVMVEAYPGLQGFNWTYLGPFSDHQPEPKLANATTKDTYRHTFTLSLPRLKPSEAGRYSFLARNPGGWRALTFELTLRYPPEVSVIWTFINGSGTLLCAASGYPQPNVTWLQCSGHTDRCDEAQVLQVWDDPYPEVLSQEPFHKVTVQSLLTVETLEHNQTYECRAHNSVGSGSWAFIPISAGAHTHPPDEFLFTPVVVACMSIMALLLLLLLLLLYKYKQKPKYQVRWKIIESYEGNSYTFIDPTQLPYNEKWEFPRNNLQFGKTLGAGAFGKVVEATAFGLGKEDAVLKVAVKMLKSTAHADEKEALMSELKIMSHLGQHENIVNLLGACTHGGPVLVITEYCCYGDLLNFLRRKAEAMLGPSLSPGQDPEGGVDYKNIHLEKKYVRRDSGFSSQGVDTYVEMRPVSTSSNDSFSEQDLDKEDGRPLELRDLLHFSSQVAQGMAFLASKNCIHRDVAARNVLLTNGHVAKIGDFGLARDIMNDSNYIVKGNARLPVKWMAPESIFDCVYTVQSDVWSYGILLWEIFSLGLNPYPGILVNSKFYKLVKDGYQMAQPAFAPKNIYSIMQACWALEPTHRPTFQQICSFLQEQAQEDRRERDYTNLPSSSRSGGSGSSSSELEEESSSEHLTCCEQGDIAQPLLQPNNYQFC
UniProt P41240: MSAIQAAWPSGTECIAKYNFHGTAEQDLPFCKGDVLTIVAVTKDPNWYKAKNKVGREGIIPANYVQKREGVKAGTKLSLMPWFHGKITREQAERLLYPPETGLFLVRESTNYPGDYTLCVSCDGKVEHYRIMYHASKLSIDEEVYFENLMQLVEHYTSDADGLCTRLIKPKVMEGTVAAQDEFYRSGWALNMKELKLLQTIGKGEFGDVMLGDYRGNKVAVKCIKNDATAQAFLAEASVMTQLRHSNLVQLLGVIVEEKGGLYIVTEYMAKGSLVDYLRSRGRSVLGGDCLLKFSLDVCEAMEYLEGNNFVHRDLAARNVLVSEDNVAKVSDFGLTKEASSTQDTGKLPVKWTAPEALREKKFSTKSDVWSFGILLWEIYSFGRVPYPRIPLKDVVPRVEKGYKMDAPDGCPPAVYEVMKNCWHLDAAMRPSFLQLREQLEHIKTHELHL
UniProt P48729: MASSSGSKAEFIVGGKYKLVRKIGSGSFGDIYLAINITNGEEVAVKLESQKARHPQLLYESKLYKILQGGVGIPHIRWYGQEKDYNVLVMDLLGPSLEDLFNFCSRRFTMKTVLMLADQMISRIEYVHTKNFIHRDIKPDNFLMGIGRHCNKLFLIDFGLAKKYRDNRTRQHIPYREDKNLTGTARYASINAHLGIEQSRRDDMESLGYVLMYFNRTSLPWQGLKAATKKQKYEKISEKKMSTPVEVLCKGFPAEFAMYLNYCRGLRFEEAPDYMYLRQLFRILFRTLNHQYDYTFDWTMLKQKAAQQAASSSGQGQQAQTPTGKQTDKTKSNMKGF
UniProt P48730: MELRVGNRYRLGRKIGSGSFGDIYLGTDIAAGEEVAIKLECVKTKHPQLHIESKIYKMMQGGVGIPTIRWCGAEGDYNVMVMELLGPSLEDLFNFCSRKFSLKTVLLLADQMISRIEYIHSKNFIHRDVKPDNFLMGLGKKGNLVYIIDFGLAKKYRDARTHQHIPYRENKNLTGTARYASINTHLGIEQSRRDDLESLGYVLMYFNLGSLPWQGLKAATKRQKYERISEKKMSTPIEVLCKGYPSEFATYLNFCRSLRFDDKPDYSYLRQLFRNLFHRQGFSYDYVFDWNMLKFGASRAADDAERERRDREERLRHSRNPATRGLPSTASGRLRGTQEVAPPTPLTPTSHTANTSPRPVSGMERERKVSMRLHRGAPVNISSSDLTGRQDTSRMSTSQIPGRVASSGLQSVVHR
UniProt Q08345: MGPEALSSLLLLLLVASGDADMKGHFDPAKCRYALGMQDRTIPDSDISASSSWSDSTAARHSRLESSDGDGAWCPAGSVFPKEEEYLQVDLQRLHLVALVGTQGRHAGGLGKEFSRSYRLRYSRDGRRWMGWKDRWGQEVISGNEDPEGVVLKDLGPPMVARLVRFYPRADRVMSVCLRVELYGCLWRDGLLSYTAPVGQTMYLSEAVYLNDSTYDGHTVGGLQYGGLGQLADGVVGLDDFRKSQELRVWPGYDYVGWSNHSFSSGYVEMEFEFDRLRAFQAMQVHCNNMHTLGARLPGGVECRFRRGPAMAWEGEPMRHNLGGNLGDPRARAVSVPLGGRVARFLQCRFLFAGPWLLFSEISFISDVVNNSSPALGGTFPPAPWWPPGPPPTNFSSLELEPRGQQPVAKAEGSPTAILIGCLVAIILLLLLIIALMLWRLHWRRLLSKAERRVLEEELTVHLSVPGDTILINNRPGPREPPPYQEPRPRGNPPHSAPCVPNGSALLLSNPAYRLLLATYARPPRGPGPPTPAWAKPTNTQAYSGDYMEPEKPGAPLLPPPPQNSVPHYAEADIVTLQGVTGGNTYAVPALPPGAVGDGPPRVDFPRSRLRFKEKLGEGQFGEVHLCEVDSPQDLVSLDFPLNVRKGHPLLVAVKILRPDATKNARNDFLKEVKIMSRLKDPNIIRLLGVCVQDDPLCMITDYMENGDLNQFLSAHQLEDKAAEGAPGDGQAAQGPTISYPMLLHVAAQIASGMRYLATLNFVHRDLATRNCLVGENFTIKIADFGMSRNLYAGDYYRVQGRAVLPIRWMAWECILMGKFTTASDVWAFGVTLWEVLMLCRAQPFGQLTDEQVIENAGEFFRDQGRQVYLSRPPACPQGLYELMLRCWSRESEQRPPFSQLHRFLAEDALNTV
UniProt Q92630: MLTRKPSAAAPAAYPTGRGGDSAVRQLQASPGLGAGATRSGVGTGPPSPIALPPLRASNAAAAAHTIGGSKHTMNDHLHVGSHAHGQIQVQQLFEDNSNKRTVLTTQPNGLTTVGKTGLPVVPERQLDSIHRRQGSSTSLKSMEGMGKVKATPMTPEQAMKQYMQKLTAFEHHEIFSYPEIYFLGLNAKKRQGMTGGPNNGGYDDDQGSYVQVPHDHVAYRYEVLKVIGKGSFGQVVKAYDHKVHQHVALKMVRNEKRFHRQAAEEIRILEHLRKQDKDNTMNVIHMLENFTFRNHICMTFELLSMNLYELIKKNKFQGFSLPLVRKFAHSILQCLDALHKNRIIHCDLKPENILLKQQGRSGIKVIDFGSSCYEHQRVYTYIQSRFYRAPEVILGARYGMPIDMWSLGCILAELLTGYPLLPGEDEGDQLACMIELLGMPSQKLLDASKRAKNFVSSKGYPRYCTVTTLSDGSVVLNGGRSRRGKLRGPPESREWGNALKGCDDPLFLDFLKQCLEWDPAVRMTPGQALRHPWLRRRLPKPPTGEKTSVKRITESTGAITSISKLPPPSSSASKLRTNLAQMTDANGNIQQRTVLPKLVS
UniProt Q15303, whole entry R711C: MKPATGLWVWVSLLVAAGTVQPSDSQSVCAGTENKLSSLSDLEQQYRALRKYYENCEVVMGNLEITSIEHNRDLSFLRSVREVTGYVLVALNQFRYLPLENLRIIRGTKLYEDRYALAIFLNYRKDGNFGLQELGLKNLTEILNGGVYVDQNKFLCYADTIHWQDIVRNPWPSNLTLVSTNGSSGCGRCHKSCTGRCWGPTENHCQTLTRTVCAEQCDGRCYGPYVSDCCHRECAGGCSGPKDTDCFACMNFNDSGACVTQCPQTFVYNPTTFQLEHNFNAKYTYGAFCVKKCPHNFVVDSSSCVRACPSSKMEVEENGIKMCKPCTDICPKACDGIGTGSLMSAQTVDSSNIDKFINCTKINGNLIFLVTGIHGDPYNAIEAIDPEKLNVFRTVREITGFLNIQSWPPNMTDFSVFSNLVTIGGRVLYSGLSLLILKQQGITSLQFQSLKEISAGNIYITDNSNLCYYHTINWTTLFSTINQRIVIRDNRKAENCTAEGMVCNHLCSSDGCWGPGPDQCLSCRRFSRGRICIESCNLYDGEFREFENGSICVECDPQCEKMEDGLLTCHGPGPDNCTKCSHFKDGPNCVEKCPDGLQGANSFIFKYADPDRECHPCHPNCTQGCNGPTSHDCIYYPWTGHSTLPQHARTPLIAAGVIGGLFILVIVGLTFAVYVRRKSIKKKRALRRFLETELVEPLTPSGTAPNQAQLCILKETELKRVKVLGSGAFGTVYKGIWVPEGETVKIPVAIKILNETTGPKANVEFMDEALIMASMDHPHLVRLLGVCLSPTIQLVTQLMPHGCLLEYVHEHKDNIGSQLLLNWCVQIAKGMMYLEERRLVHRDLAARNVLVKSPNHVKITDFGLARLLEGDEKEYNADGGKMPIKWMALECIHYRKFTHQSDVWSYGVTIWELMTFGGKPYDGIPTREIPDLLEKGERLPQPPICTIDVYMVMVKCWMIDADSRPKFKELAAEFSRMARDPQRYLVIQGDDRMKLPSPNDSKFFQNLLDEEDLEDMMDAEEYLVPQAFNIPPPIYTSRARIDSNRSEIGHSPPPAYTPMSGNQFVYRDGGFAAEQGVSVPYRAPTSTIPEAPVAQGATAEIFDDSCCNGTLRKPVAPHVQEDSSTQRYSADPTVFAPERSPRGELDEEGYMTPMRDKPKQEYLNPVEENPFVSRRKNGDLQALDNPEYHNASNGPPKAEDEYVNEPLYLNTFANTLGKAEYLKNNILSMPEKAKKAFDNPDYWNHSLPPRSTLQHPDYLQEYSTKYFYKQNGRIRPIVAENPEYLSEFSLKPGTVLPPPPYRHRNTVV

Key:
Experiment in all cases: kinase-Nluc reporter destabilization hit call (1 = scored as downregulated) (binary); higher = compound decreases kinase abundance
[1] = target: CDK7 (UniProt P50613); conditions: K562, 2-18 h
[2] = target: CDK9 (UniProt P50750); conditions: K562, 2-18 h
[3] = target: CHEK2 (UniProt O96017); conditions: K562, 2-18 h
[4] = target: CSF1R (UniProt P07333); conditions: K562, 2-18 h
[5] = target: CSK (UniProt P41240); conditions: K562, 2-18 h
[6] = target: CSNK1A1 (UniProt P48729); conditions: K562, 2-18 h
[7] = target: CSNK1D (UniProt P48730); conditions: K562, 2-18 h
[8] = target: DDR1 (UniProt Q08345); conditions: K562, 2-18 h
[9] = target: DYRK1B (UniProt Q9Y463); conditions: K562, 2-18 h
[10] = target: DYRK2 (UniProt Q92630); conditions: K562, 2-18 h
[11] = target: EPHA2 (UniProt P29317); conditions: K562, 2-18 h
[12] = target: ERBB3 (UniProt P21860); conditions: K562, 2-18 h
[13] = target: ERBB4_R711C (clone: ERBB4_mut) (UniProt Q15303); conditions: K562, 2-18 h
[14] = target: EGFR (UniProt P00533); conditions: 10 µM; K562; 2-18 h
[15] = target: EGFR_G719S (UniProt P00533); conditions: 10 µM; K562; 2-18 h
[16] = target: EGFR_G719S_T790M (UniProt P00533); conditions: 10 µM; K562; 2-18 h
[17] = target: EGFR_L718V (UniProt P00533); conditions: 10 µM; K562; 2-18 h
[18] = target: EGFR_L858R (UniProt P00533); conditions: 10 µM; K562; 2-18 h
[19] = target: EGFR_L861Q (UniProt P00533); conditions: 10 µM; K562; 2-18 h
[20] = target: EGFR_T790M (UniProt P00533); conditions: 10 µM; K562; 2-18 h

O=S(=O)(c1cccc2c(O)nccc12)N1CCCNCC1 [Hydroxyfasudil]
kinase-Nluc reporter destabilization hit call ([1]; 10 µM): inactive: 0 | kinase-Nluc reporter destabilization hit call ([2]; 10 µM): inactive: 0 | kinase-Nluc reporter destabilization hit call ([3]; 10 µM): inactive: 0 | kinase-Nluc reporter destabilization hit call ([4]; 10 µM): inactive: 0 | kinase-Nluc reporter destabilization hit call ([5]; 10 µM): inactive: 0 | kinase-Nluc reporter destabilization hit call ([6]; 10 µM): inactive: 0 | kinase-Nluc reporter destabilization hit call ([7]; 10 µM): inactive: 0 | kinase-Nluc reporter destabilization hit call ([8]; 10 µM): inactive: 0 | kinase-Nluc reporter destabilization hit call ([9]; 10 µM): inactive: 0 | kinase-Nluc reporter destabilization hit call ([10]; 10 µM): inactive: 0 | kinase-Nluc reporter destabilization hit call ([11]; 10 µM): inactive: 0 | kinase-Nluc reporter destabilization hit call ([12]; 10 µM): inactive: 0 | kinase-Nluc reporter destabilization hit call ([13]; 10 µM): inactive: 0

N#CC(=Cc1cc(Cl)cc(Cl)c1)c1cccnc1
kinase-Nluc reporter destabilization hit call ([1]; 10 µM): inactive: 0 | kinase-Nluc reporter destabilization hit call ([2]; 10 µM): inactive: 0 | kinase-Nluc reporter destabilization hit call ([3]; 10 µM): inactive: 0 | kinase-Nluc reporter destabilization hit call ([4]; 10 µM): inactive: 0 | kinase-Nluc reporter destabilization hit call ([5]; 10 µM): inactive: 0 | kinase-Nluc reporter destabilization hit call ([6]; 10 µM): inactive: 0 | kinase-Nluc reporter destabilization hit call ([7]; 10 µM): inactive: 0 | kinase-Nluc reporter destabilization hit call ([8]; 10 µM): inactive: 0 | kinase-Nluc reporter destabilization hit call [14]: inactive: 0 | kinase-Nluc reporter destabilization hit call [15]: inactive: 0 | kinase-Nluc reporter destabilization hit call ([11]; 10 µM): inactive: 0

Nc1ncnc2c1c(-c1cnc3[nH]ccc3c1)nn2C1CCCC1
kinase-Nluc reporter destabilization hit call ([1]; 2.5 µM): inactive: 0 | kinase-Nluc reporter destabilization hit call ([2]; 2.5 µM): active: 1 | kinase-Nluc reporter destabilization hit call ([3]; 2.5 µM): inactive: 0 | kinase-Nluc reporter destabilization hit call ([4]; 2.5 µM): inactive: 0 | kinase-Nluc reporter destabilization hit call ([5]; 2.5 µM): inactive: 0 | kinase-Nluc reporter destabilization hit call ([6]; 2.5 µM): inactive: 0 | kinase-Nluc reporter destabilization hit call ([7]; 2.5 µM): inactive: 0 | kinase-Nluc reporter destabilization hit call ([8]; 2.5 µM): inactive: 0 | kinase-Nluc reporter destabilization hit call ([9]; 2.5 µM): inactive: 0 | kinase-Nluc reporter destabilization hit call ([10]; 2.5 µM): inactive: 0 | kinase-Nluc reporter destabilization hit call ([11]; 2.5 µM): inactive: 0 | kinase-Nluc reporter destabilization hit call ([12]; 2.5 µM): inactive: 0 | kinase-Nluc reporter destabilization hit call ([13]; 2.5 µM): inactive: 0

C[C@@]1(C(=O)Nc2ccc(F)nc2)CCCN1c1nc(Nc2cc(C3CC3)n[nH]2)c2cccn2n1
kinase-Nluc reporter destabilization hit call ([1]; 10 µM): inactive: 0 | kinase-Nluc reporter destabilization hit call ([2]; 10 µM): inactive: 0 | kinase-Nluc reporter destabilization hit call ([3]; 10 µM): inactive: 0 | kinase-Nluc reporter destabilization hit call ([5]; 10 µM): inactive: 0 | kinase-Nluc reporter destabilization hit call ([6]; 10 µM): inactive: 0 | kinase-Nluc reporter destabilization hit call ([7]; 10 µM): inactive: 0 | kinase-Nluc reporter destabilization hit call ([9]; 10 µM): inactive: 0 | kinase-Nluc reporter destabilization hit call ([10]; 10 µM): inactive: 0 | kinase-Nluc reporter destabilization hit call [14]: inactive: 0 | kinase-Nluc reporter destabilization hit call [15]: inactive: 0 | kinase-Nluc reporter destabilization hit call [16]: inactive: 0 | kinase-Nluc reporter destabilization hit call [17]: inactive: 0 | kinase-Nluc reporter destabilization hit call [18]: inactive: 0 | kinase-Nluc reporter destabilization hit call [19]: inactive: 0 | kinase-Nluc reporter destabilization hit call [20]: inactive: 0 | kinase-Nluc reporter destabilization hit call ([12]; 10 µM): inactive: 0 | kinase-Nluc reporter destabilization hit call ([13]; 10 µM): inactive: 0

O=C(c1ccc(/C=C/c2n[nH]c3ccccc23)cc1)N1CCNCC1
kinase-Nluc reporter destabilization hit call ([1]; 2.5 µM): inactive: 0 | kinase-Nluc reporter destabilization hit call ([2]; 2.5 µM): inactive: 0 | kinase-Nluc reporter destabilization hit call ([3]; 2.5 µM): inactive: 0 | kinase-Nluc reporter destabilization hit call ([4]; 2.5 µM): inactive: 0 | kinase-Nluc reporter destabilization hit call ([5]; 2.5 µM): inactive: 0 | kinase-Nluc reporter destabilization hit call ([6]; 2.5 µM): inactive: 0 | kinase-Nluc reporter destabilization hit call ([7]; 2.5 µM): inactive: 0 | kinase-Nluc reporter destabilization hit call ([8]; 2.5 µM): inactive: 0 | kinase-Nluc reporter destabilization hit call ([9]; 2.5 µM): inactive: 0 | kinase-Nluc reporter destabilization hit call ([10]; 2.5 µM): inactive: 0 | kinase-Nluc reporter destabilization hit call ([11]; 2.5 µM): inactive: 0 | kinase-Nluc reporter destabilization hit call ([12]; 2.5 µM): inactive: 0 | kinase-Nluc reporter destabilization hit call ([13]; 2.5 µM): inactive: 0

C[C@H]1Oc2cc(cnc2N)-c2c(nn(C)c2C#N)CN(C)C(=O)c2ccc(F)cc21 [Lorlatinib]
kinase-Nluc reporter destabilization hit call ([1]; 10 µM): inactive: 0 | kinase-Nluc reporter destabilization hit call ([2]; 10 µM): inactive: 0 | kinase-Nluc reporter destabilization hit call ([3]; 10 µM): inactive: 0 | kinase-Nluc reporter destabilization hit call ([4]; 10 µM): inactive: 0 | kinase-Nluc reporter destabilization hit call ([5]; 10 µM): inactive: 0 | kinase-Nluc reporter destabilization hit call ([6]; 10 µM): inactive: 0 | kinase-Nluc reporter destabilization hit call ([7]; 10 µM): inactive: 0 | kinase-Nluc reporter destabilization hit call ([9]; 10 µM): inactive: 0 | kinase-Nluc reporter destabilization hit call ([10]; 10 µM): inactive: 0 | kinase-Nluc reporter destabilization hit call [14]: inactive: 0 | kinase-Nluc reporter destabilization hit call [15]: inactive: 0 | kinase-Nluc reporter destabilization hit call [16]: inactive: 0 | kinase-Nluc reporter destabilization hit call [17]: inactive: 0 | kinase-Nluc reporter destabilization hit call [18]: inactive: 0 | kinase-Nluc reporter destabilization hit call [19]: inactive: 0 | kinase-Nluc reporter destabilization hit call [20]: inactive: 0 | kinase-Nluc reporter destabilization hit call ([11]; 10 µM): inactive: 0 | kinase-Nluc reporter destabilization hit call ([12]; 10 µM): inactive: 0 | kinase-Nluc reporter destabilization hit call ([13]; 10 µM): inactive: 0
